This passage reports log2 fold change results from the supplement of paper PMC10849652.

The chains behind the UniProt entries cited, without tags or fusion partners. Where a name states a change or a piece, a line headed by the entry shows the natural chain unless it says otherwise.
UniProt P35658: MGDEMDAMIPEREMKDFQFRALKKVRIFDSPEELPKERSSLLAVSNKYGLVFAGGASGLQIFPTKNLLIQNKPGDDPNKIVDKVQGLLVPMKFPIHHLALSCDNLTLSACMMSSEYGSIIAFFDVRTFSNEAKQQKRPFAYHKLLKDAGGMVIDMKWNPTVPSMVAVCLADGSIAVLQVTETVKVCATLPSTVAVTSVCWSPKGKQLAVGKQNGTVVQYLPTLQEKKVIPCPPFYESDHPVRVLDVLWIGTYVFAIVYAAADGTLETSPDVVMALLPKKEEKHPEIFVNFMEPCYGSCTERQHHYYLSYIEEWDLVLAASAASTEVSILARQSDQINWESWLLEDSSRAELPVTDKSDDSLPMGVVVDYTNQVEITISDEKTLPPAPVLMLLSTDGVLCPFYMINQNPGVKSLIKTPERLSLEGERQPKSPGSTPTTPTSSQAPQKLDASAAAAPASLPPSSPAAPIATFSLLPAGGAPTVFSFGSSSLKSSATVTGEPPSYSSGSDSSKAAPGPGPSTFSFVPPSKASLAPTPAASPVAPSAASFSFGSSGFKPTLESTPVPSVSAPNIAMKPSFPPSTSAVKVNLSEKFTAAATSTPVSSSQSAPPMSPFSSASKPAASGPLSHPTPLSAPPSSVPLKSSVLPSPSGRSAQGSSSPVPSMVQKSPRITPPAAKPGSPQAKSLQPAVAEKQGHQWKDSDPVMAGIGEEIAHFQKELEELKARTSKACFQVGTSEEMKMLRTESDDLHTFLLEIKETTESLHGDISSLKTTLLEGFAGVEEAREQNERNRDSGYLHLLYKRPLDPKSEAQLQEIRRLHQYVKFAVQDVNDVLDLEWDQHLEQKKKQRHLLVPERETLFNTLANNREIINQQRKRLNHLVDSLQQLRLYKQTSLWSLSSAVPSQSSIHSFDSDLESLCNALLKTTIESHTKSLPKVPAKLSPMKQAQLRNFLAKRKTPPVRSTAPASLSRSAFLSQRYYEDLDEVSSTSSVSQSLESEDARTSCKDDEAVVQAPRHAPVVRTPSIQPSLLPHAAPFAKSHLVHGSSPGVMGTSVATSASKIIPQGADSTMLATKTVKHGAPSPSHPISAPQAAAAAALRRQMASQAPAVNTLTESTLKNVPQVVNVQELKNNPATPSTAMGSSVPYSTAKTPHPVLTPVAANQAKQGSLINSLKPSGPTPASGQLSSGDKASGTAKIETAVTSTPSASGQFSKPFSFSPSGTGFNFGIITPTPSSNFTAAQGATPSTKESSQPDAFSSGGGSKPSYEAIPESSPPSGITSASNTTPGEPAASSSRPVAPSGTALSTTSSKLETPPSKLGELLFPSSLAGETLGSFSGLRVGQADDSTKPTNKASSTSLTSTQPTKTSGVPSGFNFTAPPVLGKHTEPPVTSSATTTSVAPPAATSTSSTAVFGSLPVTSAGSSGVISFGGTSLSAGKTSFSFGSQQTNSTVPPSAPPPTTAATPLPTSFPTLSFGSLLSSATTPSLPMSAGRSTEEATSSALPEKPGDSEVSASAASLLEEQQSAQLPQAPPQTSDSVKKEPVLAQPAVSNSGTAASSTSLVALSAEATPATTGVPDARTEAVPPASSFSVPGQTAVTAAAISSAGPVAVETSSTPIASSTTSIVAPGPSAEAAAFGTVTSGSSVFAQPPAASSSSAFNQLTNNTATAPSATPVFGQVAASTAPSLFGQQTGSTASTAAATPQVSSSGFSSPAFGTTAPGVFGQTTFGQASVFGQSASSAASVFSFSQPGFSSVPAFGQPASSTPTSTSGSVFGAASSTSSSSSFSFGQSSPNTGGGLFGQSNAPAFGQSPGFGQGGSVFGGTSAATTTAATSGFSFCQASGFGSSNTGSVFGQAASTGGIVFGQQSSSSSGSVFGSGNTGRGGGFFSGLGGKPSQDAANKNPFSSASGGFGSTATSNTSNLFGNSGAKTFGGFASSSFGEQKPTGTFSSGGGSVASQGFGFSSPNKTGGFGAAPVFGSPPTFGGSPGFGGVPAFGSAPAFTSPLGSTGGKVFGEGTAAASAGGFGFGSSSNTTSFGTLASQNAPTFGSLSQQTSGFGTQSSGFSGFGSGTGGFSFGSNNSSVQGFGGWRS
UniProt P20774: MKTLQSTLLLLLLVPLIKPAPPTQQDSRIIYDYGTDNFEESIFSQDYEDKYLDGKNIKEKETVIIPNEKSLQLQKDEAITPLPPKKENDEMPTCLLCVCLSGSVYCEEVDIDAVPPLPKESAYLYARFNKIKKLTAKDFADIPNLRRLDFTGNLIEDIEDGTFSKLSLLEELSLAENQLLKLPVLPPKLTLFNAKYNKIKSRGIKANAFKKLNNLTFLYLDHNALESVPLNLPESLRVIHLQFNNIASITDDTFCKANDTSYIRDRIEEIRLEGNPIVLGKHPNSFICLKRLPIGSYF
UniProt Q6GQQ9: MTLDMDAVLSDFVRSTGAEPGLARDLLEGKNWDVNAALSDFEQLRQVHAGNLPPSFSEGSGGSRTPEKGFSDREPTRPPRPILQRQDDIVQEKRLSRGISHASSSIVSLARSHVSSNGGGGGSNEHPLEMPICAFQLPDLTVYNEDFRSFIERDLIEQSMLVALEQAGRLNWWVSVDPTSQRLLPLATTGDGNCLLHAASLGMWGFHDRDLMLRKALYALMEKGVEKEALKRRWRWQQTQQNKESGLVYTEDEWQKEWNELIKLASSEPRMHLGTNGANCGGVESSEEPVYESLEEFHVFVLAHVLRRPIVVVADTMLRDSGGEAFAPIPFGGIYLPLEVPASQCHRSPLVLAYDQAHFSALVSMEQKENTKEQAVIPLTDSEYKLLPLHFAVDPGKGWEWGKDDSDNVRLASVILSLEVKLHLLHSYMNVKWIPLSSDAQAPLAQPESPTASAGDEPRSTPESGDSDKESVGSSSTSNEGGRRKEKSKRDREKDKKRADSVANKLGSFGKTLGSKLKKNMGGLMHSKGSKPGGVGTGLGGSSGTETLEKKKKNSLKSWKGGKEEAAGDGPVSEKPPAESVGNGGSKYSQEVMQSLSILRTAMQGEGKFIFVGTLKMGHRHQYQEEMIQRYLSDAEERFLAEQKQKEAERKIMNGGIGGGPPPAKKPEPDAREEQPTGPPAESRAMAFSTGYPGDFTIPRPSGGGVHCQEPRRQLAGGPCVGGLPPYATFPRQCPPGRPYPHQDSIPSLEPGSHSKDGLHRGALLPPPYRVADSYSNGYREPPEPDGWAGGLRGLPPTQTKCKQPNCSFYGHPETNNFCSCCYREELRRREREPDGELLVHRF
UniProt Q9BZF3: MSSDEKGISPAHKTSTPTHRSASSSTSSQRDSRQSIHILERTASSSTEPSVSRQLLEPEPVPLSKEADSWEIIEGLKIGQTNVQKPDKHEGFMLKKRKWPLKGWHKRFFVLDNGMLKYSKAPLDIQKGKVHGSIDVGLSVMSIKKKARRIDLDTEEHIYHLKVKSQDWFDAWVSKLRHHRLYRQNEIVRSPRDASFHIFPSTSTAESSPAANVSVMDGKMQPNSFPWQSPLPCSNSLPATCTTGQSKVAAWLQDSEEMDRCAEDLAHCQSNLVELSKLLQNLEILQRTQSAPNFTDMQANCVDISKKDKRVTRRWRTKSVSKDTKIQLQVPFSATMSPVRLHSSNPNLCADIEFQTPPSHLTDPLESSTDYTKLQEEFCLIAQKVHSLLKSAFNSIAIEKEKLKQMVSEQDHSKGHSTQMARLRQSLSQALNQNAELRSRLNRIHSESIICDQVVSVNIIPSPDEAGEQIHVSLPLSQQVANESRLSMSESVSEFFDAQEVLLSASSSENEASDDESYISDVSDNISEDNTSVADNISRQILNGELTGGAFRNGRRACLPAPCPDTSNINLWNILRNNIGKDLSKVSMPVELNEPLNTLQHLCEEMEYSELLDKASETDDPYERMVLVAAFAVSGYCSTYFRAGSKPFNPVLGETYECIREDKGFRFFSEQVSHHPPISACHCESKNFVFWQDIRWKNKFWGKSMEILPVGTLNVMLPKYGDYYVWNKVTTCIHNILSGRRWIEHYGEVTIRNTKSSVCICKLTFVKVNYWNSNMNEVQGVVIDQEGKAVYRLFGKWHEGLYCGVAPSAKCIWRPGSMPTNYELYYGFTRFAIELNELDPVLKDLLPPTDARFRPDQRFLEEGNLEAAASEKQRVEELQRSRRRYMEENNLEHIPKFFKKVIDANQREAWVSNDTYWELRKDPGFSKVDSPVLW
UniProt P37198: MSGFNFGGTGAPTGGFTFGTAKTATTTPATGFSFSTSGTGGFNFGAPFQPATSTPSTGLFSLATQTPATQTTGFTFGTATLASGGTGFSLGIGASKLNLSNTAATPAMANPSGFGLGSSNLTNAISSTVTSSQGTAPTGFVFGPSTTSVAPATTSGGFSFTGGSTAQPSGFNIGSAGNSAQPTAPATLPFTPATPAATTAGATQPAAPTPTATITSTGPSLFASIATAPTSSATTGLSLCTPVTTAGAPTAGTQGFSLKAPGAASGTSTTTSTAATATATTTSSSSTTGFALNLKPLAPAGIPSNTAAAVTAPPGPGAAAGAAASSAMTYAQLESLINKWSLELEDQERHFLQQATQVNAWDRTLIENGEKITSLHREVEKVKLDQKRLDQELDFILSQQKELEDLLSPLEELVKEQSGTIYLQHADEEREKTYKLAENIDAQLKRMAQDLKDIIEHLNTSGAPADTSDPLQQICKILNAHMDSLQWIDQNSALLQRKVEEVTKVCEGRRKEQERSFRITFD
UniProt Q8TEA1: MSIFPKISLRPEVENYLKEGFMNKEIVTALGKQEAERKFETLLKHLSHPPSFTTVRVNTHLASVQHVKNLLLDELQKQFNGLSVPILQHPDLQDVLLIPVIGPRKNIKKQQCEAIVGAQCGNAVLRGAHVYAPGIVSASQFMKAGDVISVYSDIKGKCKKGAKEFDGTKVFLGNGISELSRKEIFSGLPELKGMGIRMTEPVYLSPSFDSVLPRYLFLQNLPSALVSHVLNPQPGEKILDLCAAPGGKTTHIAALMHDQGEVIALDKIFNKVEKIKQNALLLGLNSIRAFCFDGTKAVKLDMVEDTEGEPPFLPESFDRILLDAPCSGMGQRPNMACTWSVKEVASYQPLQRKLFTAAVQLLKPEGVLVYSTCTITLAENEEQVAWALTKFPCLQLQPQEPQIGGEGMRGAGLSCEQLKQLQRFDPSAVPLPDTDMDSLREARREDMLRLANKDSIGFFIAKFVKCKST
UniProt O60502: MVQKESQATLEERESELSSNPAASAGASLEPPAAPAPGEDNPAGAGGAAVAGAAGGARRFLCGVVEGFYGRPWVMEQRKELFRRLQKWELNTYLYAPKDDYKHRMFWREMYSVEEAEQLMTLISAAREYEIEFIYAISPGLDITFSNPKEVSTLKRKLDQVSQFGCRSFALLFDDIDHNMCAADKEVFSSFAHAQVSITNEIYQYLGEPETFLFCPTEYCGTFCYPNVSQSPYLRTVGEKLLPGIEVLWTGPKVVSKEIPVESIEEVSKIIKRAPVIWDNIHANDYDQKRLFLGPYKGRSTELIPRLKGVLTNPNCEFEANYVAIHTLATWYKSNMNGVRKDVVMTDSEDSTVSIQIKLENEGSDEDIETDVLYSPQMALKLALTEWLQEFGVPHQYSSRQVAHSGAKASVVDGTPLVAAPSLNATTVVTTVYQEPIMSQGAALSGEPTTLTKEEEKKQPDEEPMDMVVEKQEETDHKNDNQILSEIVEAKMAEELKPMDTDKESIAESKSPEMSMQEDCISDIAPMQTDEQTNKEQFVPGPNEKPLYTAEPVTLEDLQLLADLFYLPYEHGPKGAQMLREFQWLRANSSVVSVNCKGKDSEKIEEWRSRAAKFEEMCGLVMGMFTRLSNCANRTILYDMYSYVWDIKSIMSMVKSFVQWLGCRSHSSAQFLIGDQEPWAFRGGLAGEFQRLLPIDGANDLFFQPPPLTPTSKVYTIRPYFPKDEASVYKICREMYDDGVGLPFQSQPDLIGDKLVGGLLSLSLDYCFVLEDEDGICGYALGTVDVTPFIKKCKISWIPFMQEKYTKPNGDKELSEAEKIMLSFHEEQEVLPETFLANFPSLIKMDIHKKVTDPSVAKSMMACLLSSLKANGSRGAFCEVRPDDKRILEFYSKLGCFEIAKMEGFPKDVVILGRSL
UniProt O43929: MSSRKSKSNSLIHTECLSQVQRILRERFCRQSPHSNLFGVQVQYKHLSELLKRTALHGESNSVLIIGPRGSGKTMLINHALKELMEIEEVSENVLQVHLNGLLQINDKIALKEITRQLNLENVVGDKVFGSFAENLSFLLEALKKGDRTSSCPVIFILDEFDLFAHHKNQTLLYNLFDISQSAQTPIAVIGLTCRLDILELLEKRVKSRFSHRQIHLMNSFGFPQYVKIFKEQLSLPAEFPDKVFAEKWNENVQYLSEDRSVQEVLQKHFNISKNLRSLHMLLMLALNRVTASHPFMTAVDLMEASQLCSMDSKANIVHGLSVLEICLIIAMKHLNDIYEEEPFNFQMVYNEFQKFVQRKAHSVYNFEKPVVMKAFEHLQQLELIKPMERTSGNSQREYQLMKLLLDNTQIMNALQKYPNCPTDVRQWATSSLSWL

Some of the results follow.

Compound in the assay: c1cn2cc(-c3ccc4cn[nH]c4c3)nc(Nc3ccc(N4CCOCC4)cc3)c2n1 [entospletinib]
Briefly: log2 fold change, soluble protein after heating vs DMSO (PISA); higher = thermal stabilisation; K562 cells, 10 uM, 30 min; active = over 0.2 and 3.5 SD of the protein, either way, in both replicates (recomputed). A digest of the protocol:
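Aliquots of K562 cells (2×10^6 cells/mL) treated with 10 μM compound for 30 min were heated for 3 min over 48°C-58°C. After pooling and extraction in PBS with 0.5% NP-40 at 4°C, soluble protein from a 21,000xg, 90 min spin was quantified by TMTpro 16plex LC-MS/MS with channel sums equalised. Thermal stability is expressed against control samples, from duplicates, as a log2 fold change.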
Turning to OCRL (UniProt Q01968), the log2 fold change was inactive: 0.114. As for NSUN7 (UniProt Q8NE18), the log2 fold change is inactive: 0.099.

Regarding PABPC1 (UniProt P11940), the log2 fold change is inactive: 0.11.

On to NUCB1 (UniProt Q02818), for which the log2 fold change was inactive: -0.013. Turning to NUP214 isoform 5 (UniProt P35658), the log2 fold change was inactive: 0.099.

For the target NUBP2 (UniProt Q9Y5Y2), the log2 fold change was inactive: -0.006. To NSUN5 isoform 2 (UniProt Q96P11) belongs inactive: 0.

For the target NUP58 (UniProt Q9BVL2), the log2 fold change was inactive: -0.049. To NUBP1 (UniProt P53384) belongs inactive: -0.055.

Take OCIAD1 (UniProt D6RDK6): the log2 fold change was inactive: -0.017. With NUTF2 (UniProt P61970), the log2 fold change was inactive: -0.029. Regarding OSGEP (UniProt Q9NPF4), the log2 fold change was inactive: 0.028. For the target NUP93 (UniProt Q8N1F7), the log2 fold change is inactive: -0.009. As for NUDT8 (UniProt Q8WV74), the log2 fold change was inactive: 0.054. In the case of OGN (UniProt P20774), the log2 fold change is inactive: 0.07. In the case of OXLD1 (UniProt Q5BKU9), the log2 fold change is inactive: 0.063. The result for P4HB (UniProt P07237) reads inactive: -0.045; that for OS9 (UniProt Q13438), inactive: 0.043. As for ORMDL1 (UniProt Q9P0S3), the log2 fold change was inactive: -0.073. The result for OTUD7B (UniProt Q6GQQ9) reads inactive: -0.111; that for OSBPL6 isoform 5 (UniProt Q9BZF3), inactive: 0.052; that for OXCT1 (UniProt P55809), inactive: 0.05. Turning to NUP62 (UniProt P37198), the log2 fold change is inactive: -0.003. As to NSMCE1 (UniProt Q8WV22), the log2 fold change is inactive: 0.033. The result for NSUN6 (UniProt Q8TEA1) reads inactive: 0.042. As for OARD1 (UniProt Q9Y530), the log2 fold change was inactive: 0.009.

On to OGA (UniProt O60502), for which the log2 fold change was inactive: -0.018. As for NUSAP1 (UniProt Q9BXS6), the log2 fold change is inactive: -0.006. As to ORC4 (UniProt O43929), the log2 fold change was inactive: -0.059.

On to NT5DC2 isoform 2 (UniProt Q9H857), for which the log2 fold change is inactive: -0.026. With NUP37 (UniProt Q8NFH4), the log2 fold change is inactive: 0.016.
